# About 6,200 (1.8%) of roughly 340,000 compounds were called active. This list was built around the results that the source calls inconclusive (neither active nor inactive); the mix of calls is not that of the screen. The call rests on the fitted dose curve; in most records, active means well fitted activation curve with a large enough effect; inconclusive means small, poorly fitted or top-dose-only effect; inactive means no such curve, though single readings can be large or run the other way. Potencies of inconclusive entries are doubtful fits and often do not repeat.
# Assay: A quantitative high throughput screen for small molecules that induce DNA re-replication in SW480 colon adenocarcinoma cells. Further: nearly all actives have a fitted effect of over 55% in size. On re-replication activation: % of control where 0% means no effect.
# Conditions: Hoechst DNA content imaging, 48 h; re-replication activation: at 46.1 µM (top of the series) unless noted
# Procedure, shortened: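 Per well, 250 cells were exposed to pinned compound for 48 hr. Nuclear DNA was visualised with Hoechst (40 min, 37 C) and total object intensity recorded by fluorescence scanning.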
# Potency means the concentration at half of the fitted maximal effect.
SMILES,Potency,re-replication activation
Cc1cc(C)c(C)c(S(=O)(=O)N(C)CCc2ccccn2)c1C,inactive,
O=C(NCCN1C(=O)S/C(=C\c2ccc(Cl)cc2Cl)C1=O)C1=COCCO1,"inconclusive: 23.1 µM [activator, single point]",
COc1cc2c(cc1OC)CN(C(=O)c1cc(S(=O)(=O)N3CCCCC3)ccc1Cl)CC2,"inconclusive: 20.6 µM [activator, single point]",
CN(C)[C@@H]1C(=O)C(C(N)=O)=C(O)[C@]2(O)C(=O)C3=C(O)c4c(O)ccc(Cl)c4[C@H](O)[C@H]3C[C@@H]12,inactive,
O=C(O)c1ccc(CSc2nc3ccc(N4C(=O)C5C6C=CC(C6)C5C4=O)cc3s2)cc1 (stereo not given),inactive,
Cc1ccccc1NS(=O)(=O)c1ccc(C(=O)NNC(=O)c2ccccc2O)cc1,active: 14.6 µM,
COc1ccc(CSc2nnc(C)s2)cc1F,"inconclusive: 0.164 µM [activator, partial curve, poor fit]",
COc1cnn(-c2cccc(C)c2)c(=O)c1Cl,,inconclusive: 120% [activator]
CCc1ccc(NC(=S)NC2CC3CCCC(C2)N3Cc2cccs2)cc1 (stereo not given),active: 14.6 µM,
CS(=O)(=O)NCC(c1ccco1)N1CCN(c2ccc(F)cc2)CC1 (stereo not given),inactive,
COc1nc(Nc2ccc(OC)c(Cl)c2)nc(OC)n1,inactive,
O=C(c1ccc2ncsc2c1)N1CCCCC1,"inconclusive: 23.1 µM [activator, single point]",
FC(F)(F)c1cc(-c2ccccc2)nc(NCC2CCCO2)n1 (stereo not given),inactive,
O=C1C=C(Nc2ccc(O)cc2)CC(c2ccco2)C1 (stereo not given),"inconclusive: 29.1 µM [activator, single point]",
Cc1ccc(-n2ncc3c(=O)n(-c4ccc(C)c(C)c4)c(C)nc32)cc1,,inactive: -4.74% [at 9.22 µM]
C/C(=N\NC(N)=S)c1ccc(Cl)s1,"inconclusive: 29.1 µM [activator, single point]",
O=C(NCCN1C(=O)S/C(=C\c2ccccc2)C1=O)c1cc(S(=O)(=O)N2CCOCC2)c(Cl)cc1Cl,"inconclusive: 2.06 µM [activator, single point]",
Cc1cc2cc3c(=O)[nH]c(=O)nc-3n(CC(O)C(O)C(O)CO)c2cc1C (stereo not given),active: 20.6 µM,
O=C(NCCCN1CCCC1)C1CCN(C(=O)c2cc3sccc3n2Cc2ccc(F)cc2)CC1,"inconclusive: 29.1 µM [activator, single point]",
O=C(NCc1ccccc1Cl)c1ccc(CSc2nc3ccncc3[nH]2)cc1,inactive,
CCOc1ccc(N(CC(=O)NC(C)C)C(=O)CCC(=O)Nc2ccccn2)cc1,"inconclusive: 0.146 µM [activator, full curve, poor fit]",
COCCn1c(SCC(=O)N2CCCCC2)nc2c([nH]c3ccccc32)c1=O,inactive,
O=C(CSc1nnc(NC(=O)c2cccc(F)c2)s1)NC1CCCC1,inactive,

# Shown bar-delimited: entries from further up
SMILES | Potency | re-replication activation
COc1cc2c(cc1OC)CN(C(=O)c1cc(S(=O)(=O)N3CCCCC3)ccc1Cl)CC2 | inconclusive: 20.6 µM [activator, single point] | 
FC(F)(F)c1cc(-c2ccccc2)nc(NCC2CCCO2)n1 (stereo not given) | inactive | 

# Going on with the list.

SMILES,Potency,re-replication activation
O=C(NCCc1ccc(Cl)cc1)Nc1ccc(Cl)cc1,inactive,
c1ccc2c(c1)nc(N1CCOCC1)c1c3ccccc3[nH]c21,"inconclusive: 18.4 µM [activator, single point]",
Nc1nc(=S)ss1,"inconclusive: 29.1 µM [activator, single point]",
Cc1cc(C)n(NC(=S)NC2CCCC2)c(=O)c1C#N,"inconclusive: 0.651 µM [activator, partial curve, poor fit]",
C=CCn1c(SCC2CCCCO2)nc2sc(CC)cc2c1=O (stereo not given),"inconclusive: 5.8 µM [activator, partial curve, poor fit]",
COc1cccc(OCc2cc(/C=N/n3cncn3)ccc2OC)c1,"inconclusive: 18.4 µM [activator, single point]",
CCn1c(SCC(=O)Nc2cc(OC)ccc2OC)nc2c(c1=O)SCC2,"inconclusive: 32.6 µM [activator, partial curve, poor fit]",
Cc1cccc(Cl)c1NC(=S)NN,"inconclusive: 6.51 µM [activator, partial curve, poor fit]",
COc1ccccc1/C=C/CN1CCC(n2nccc2NC(=O)C2CC2)CC1,"inconclusive: 14.6 µM [activator, partial curve, poor fit]",
CC(O)CNCCCOc1cccc(Oc2ccccc2)c1 (stereo not given),,inactive: -7.74% [at 1.84 µM]
CC1CCN(CCOCCOc2ccccc2Br)CC1,"inconclusive: 29.1 µM [activator, single point]",
O=C(Nc1ccc(-c2nc3ccccc3o2)c(O)c1)c1cc(-n2cnnc2)ccc1Cl,"inconclusive: 20.6 µM [activator, single point]",
CN(C)c1ccccc1C(=O)N1CCCC(Nc2ccc(F)cc2)C1 (stereo not given),"inconclusive: 5.8 µM [activator, full curve, poor fit]",
CCCCNC(=O)CCn1c(=O)c2ccccc2n(Cc2ccc(Cl)cc2)c1=O,"inconclusive: 5.8 µM [activator, single point]",
O=C(CSc1nncn1-c1ccccc1)Nc1ccccc1F,"inconclusive: 23.1 µM [activator, single point]",
S=C(NCC1CCCO1)N1CCN(c2nc(-c3ccc(Cl)cc3)cs2)CC1 (stereo not given),"inconclusive: 0.0461 µM [activator, full curve, poor fit]",
Cc1ccc(C(=O)NCC(=O)NC2CCC(C)CC2)s1 (stereo not given),"inconclusive: 14.6 µM [activator, single point]",
COc1ccc(OCc2cc(C(=O)NC3CCOCC3)no2)c2ccccc12,"inconclusive: 23.1 µM [activator, single point]",
COc1ccc(Cn2c(SCc3cc(C)ccc3C)nc3cc(OC)c(OC)cc3c2=N)cc1,"inconclusive: 2.31 µM [activator, single point]",
NC(=O)C1CCN(c2oc(/C=C/c3ccc(F)cc3)nc2S(=O)(=O)c2ccccc2)CC1,"inconclusive: 29.1 µM [activator, single point]",
COC(=O)C(C(=O)OC)C1C=CCN(C(C)=O)C1 (stereo not given),inactive,
Cc1ccc(-c2nnc(SCC(=O)N/N=C/c3c(C)nn(-c4ccccc4)c3C)n2-c2ccccc2)cc1,"inconclusive: 10.3 µM [activator, partial curve, poor fit]",
